## Primary screen of a compound library

Protein sequences, listed by entry. Tags and fused reporters are not part of them. Residues count along the entry.
UniProt P9WNZ1, whole entry: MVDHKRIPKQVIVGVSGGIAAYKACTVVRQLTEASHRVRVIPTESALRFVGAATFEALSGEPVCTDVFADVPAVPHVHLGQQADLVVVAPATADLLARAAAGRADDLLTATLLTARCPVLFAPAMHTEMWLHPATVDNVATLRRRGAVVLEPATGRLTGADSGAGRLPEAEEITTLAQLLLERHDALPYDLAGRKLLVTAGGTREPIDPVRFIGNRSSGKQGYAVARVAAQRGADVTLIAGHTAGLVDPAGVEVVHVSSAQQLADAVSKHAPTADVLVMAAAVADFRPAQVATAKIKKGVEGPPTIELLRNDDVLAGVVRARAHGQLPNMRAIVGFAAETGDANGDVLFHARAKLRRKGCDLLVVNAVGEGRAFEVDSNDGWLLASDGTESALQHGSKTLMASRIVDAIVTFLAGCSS
UniProt P9WFT3, whole entry: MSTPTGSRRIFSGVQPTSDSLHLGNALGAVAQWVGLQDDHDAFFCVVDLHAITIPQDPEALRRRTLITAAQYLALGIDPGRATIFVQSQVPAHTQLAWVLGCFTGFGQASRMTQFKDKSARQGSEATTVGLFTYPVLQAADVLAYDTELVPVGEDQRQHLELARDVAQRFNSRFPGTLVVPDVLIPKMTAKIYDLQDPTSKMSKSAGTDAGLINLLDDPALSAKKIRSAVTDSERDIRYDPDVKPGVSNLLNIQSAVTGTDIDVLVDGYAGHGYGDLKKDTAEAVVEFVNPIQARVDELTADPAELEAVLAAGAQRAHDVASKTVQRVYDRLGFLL
UniProt Q4DA54, 1-478: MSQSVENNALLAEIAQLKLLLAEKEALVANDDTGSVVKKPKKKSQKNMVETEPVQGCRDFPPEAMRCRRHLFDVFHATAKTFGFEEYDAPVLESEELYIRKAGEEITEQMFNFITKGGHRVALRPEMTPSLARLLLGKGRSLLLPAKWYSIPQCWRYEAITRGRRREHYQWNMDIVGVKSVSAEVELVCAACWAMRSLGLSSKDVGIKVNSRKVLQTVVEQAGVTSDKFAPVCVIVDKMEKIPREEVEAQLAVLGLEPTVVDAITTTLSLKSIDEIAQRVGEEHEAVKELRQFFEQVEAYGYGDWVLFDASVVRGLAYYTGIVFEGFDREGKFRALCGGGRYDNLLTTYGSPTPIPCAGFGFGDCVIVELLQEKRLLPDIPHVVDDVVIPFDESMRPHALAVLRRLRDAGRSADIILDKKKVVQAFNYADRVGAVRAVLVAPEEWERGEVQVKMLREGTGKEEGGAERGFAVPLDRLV
UniProt Q8IDJ8, 1-583: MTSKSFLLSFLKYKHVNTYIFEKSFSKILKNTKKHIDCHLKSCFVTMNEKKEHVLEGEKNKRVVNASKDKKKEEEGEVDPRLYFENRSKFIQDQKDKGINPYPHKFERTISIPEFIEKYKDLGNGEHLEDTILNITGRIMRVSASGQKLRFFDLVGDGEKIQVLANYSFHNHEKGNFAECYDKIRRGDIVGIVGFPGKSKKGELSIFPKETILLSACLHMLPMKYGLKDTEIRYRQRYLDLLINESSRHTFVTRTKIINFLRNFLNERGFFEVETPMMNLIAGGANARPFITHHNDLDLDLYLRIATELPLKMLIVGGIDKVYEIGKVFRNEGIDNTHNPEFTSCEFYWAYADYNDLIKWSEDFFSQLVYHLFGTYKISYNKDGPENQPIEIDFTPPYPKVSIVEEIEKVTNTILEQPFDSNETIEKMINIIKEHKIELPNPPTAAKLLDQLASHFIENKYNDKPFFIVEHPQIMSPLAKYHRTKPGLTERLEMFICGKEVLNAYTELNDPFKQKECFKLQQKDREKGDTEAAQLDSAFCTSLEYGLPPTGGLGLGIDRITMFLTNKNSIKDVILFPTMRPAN

Data taken from ChEMBL document CHEMBL3988442, “University of Dundee, Small-Polar-MMV Screening Library” (2021).

CoaBC: 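Enzyme assay of CoaBC with a phosphate dye (Biomol Green) read at 650 nm. Target: Coenzyme A biosynthesis protein CoaBC, Mycobacterium tuberculosis (UniProt P9WNZ1). Compounds at 30 µM. Higher reads as stronger inhibition, judged from the few compounds that gave an IC50. Most strong results did not repeat in a second test. Of about 67,000 compounds tested this way, about 40 (0.06%) reached 50% or more in at least one test.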
MtTrpRS: 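Tryptophan-tRNA ligase, Mycobacterium tuberculosis (UniProt P9WFT3). Enzyme assay of tryptophanyl-tRNA synthetase; the read-out is not stated. Compounds at 10 µM. Direction is not recorded; retested compounds ran higher, which suggests that high means inhibition. About 65,000 compounds were tested under these conditions; 0.098% (about 64) showed 50% or more at least once.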
TcHisRS: 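Histidine-tRNA ligase, Trypanosoma cruzi CL Brener (UniProt Q4DA54). Enzyme assay of histidyl-tRNA synthetase; the read-out is not stated. Tested at 30 µM. The record gives no direction; compounds that gave an IC50 in retests scored well above the rest, so higher reads as stronger inhibition. About 69,000 compounds were tested under these conditions; 0.045% (about 31) showed 50% or more at least once.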
PfKRS1: 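Lysine-tRNA ligase, Plasmodium falciparum 3D7 (UniProt Q8IDJ8). Enzyme assay of the cytosolic lysyl-tRNA synthetase in 384-well plates, read by luminescence. Concentration: 30 µM. Direction is inferred from only a few compounds that gave an IC50; most scored high, so higher reads as stronger inhibition. Of about 69,000 compounds tested this way, about 49 (0.071%) reached 50% or more in at least one test.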

Results are given as percent effect.
The controls that fix the scale are not given in the record; negative values are as filed.
Compounds were drawn at random from those tested, without regard to their results.
A dash means the value is not listed here; it may have been measured.

compound,CoaBC,MtTrpRS,TcHisRS,PfKRS1
CC(C)c1cc2c(s1)NC(c1ccccc1)NC2=O (stereo not given),2.427,-1.44,4.95,-0.1569
Cc1ccc(-n2cnnn2)cc1NCC(=O)Nc1cc(F)ccc1F,1.921,3.599,-0.6135,8.079
CC(C)c1nnc2n1CCN(Cc1csc(-c3cnn(C)c3)n1)C2,5.72,0.831,5.291,2.822
Cc1cncc(C(=O)N2C[C@@H]3CN(S(C)(=O)=O)CCO[C@@H]3C2)c1,-0.4878,-,10,-0.9924
CC(C)N(Cc1ccccn1)C(=O)CCOc1cccc(F)c1,-0.3822,-2.556,-2.762,0.02236
Cc1nn(C)c(N(C)C)c1CNCc1ccnc(N2CCCCC2)c1,6.743,-3.706,1.69,0.814
Cc1cc(-c2cc(N)c(=O)n(CC(=O)N3CCCC(C)C3)n2)c(C)o1 (stereo not given),0.4932,-5.409,2.273,0.6085
Cc1c[nH]c(C(=O)N2CCC(c3nnc(CN(C)CCO)n3C)CC2)c1,-2.057,-4.77,8.939,1.802
O=C(c1ccncc1)N1CCCC(c2cc(C(F)F)n3ncnc3n2)C1 (stereo not given),1.471,-,-1.064,0.4964
O=C(NCCCc1ccc(F)cc1)c1ccc(N2CCOCC2)cc1,-5.646,-0.552,5.366,6.129
CCc1cnc(N2CCc3cc(C(=O)NC)c(N(C)C)nc3CC2)nc1,3.094,-,10.55,4.767
CC(=O)N1CCCn2nc(CNS(=O)(=O)N(C)C(C)C)cc2C1,1.533,-3.585,1.212,3.385
Cc1cscc1C(=O)Nc1cncnc1N(C)C,9.127,-2.16,0,6.416
O=C(O)c1ccnc(SCc2ccccc2)c1,10.41,-32.89,9,-3.825
COc1cccc(OC2CN(C(=O)c3cc(CC(C)C)nn3C)C2)c1,6.379,-6.338,8.901,3.49
CCc1nc(C)c(CN2CCOC(Cc3cccc4ccccc34)C2)[nH]1 (stereo not given),-3.563,2.709,9.524,-0.669
O=C(CCc1ccc(-c2ccccc2)[nH]1)N1CCCC(n2ccnc2)C1 (stereo not given),2.662,-12.37,10.65,-2.138
CCCc1nnc(NC(=O)N2CCCC2c2ccncc2)s1 (stereo not given),-,6.605,1.316,0.82
COc1ccc2[nH]cc(C(=O)N3C[C@@H](O)[C@H](NS(C)(=O)=O)C3)c2c1,3.497,-7.104,8.647,2.014
COC(=O)c1cccc(S(=O)(=O)Nc2ccc(F)c(C(N)=O)c2)c1,2.871,-1.845,6.863,-0.03791
CN(C)CCCN(Cc1ccco1)Cc1ccnn1C1CCCCO1 (stereo not given),-1.35,-4.342,6.202,2.189
NC(=O)c1c(-c2ccc(Cl)cc2Cl)csc1NC(=O)CCC(=O)O,0.3797,-1.627,3.727,-4.249
Cc1noc(CN(C)C2CCCN(Cc3noc(C4CC4)n3)C2)n1 (stereo not given),3.259,-7.955,-8.092,0.9128
O=C(Cc1cccnc1)N1CC(Cc2nccc3cc[nH]c23)C1,-1.595,-4.631,3.876,-0.2861
CN(C)c1ccc(C(=O)N2CCCC2c2cnn(C)c2)cn1 (stereo not given),1.66,-5.796,2.312,0.8171
CCn1ccnc1CN(C)CC1CCCN1c1cccnn1 (stereo not given),0.9126,-3.294,7.925,10.08
O=C(c1ccc(-n2ccnc2)cc1)N1CCCC(n2ccnc2)C1 (stereo not given),15.57,-7.456,0.5814,0.6196
COC(=O)c1cc2c(OC)c(C)c(OC)cc2[nH]1,0.6075,-2.894,0,1.857
O=C(CN1CCN(c2ccnc3c(F)ccc(F)c23)CC1)NC1CC1,3.241,0.5623,8.081,4.854
CCCc1nc2c(c(C)c(C)n2Cc2ccncc2)c(N)c1CC,-0.2358,0.154,8.247,-5.149
Cn1nc(CN2CCOCC2)c2c1CN(Cc1ccsc1)C2,-3.382,-5.455,10.97,9.398
Cc1cc(NC(=O)CNC(C)(C)c2ccc3c(c2)OCCO3)no1,-2.269,-2.624,9.091,-0.224
Cc1cc2cccc(C(=O)N3CC[C@@H](N)[C@H](O)C3)c2o1,1.366,-2.171,-12.56,3.868
Cc1noc(C(C)Nc2ccc(N3CCOCC3)cc2C)n1 (stereo not given),0.9685,-0.3163,15,2.628
Cn1cc(CNCC2(N3CCCCC3)Cc3ccccc3C2)cn1,17.27,-4.461,10.27,-0.2729
CC(C(=O)N1CCN(C(=O)c2ccc(F)cc2)CC1)n1ccnc1 (stereo not given),0.1209,0.7346,7.143,8.143
O=S(=O)(c1cccc(F)c1)N1CCCCC1c1ccn[nH]1 (stereo not given),5.583,-,9.89,4.001
Cc1cc(C)n(-c2ccc(CNCc3cccc(C#N)c3)cn2)n1,9.252,-2.197,5.917,1.245
c1csc(CN2CCn3c(Cn4cncn4)cnc3C2)n1,7.772,3.348,3.825,4.206
Cc1ccc2nc(-c3nc4c([nH]3)CC(C)(C)CNC4=O)cn2c1,7.006,-2.429,7.2,3.756
CN1CCC(c2n[nH]c(=O)n2CC2CCCCC2)CC1,-6.4,-9.928,1.149,3.036
CC(NCc1ccc(F)cc1)c1ccc(S(C)(=O)=O)cc1 (stereo not given),11.95,-6.59,0,3.652
Cc1cc(NC(=O)Cn2ccc(=O)c3ccccc32)[nH]n1,10.93,-4.558,3.704,3.913
O=C(CCCc1cn[nH]c1)N1C[C@H](CO)C[C@H](CN2CCCC2)C1,8.436,-3.924,0.5236,-0.02237
COc1ccc(-c2nc(C#N)c(N(C)C)o2)cc1S(=O)(=O)N1CCCC1,1.841,-2.716,3.125,-1.871
Cn1cc(C(=O)N2CC[C@@]3(O)CCN(C(=O)C4CCC4)C[C@H]3C2)cn1,-9.813,-1.614,0,-2.091
Cc1ccc(NC(=O)C(C)N2CCCN(c3nccs3)CC2)c(C)c1 (stereo not given),-1.813,1.707,-1.527,-0.8909
CN(Cc1nc(Cc2cccc(C(F)(F)F)c2)no1)CC1CCCCO1 (stereo not given),-4.198,-5.168,-0.4975,6.683
CCc1noc(C2CCCCN2C(=O)c2cccnc2)n1 (stereo not given),-7.621,0.6477,3.478,3.088
O=C(CCCNC(=O)Nc1ccc(F)cc1F)Nc1cn[nH]c1,8.058,-0.7802,0,1.548
CC(C)(C)CC(=O)N1CC[C@H]2CC(=O)N(CCc3c[nH]cn3)CC[C@H]2C1,4.636,-5.387,3.261,2.194
Fc1ccc(CN2CCCC2Cn2cncn2)c2ncccc12 (stereo not given),5.481,-1.288,10.12,5.026
CCC(C(=O)NCc1csc(-c2ncccn2)n1)n1cccn1 (stereo not given),16.04,1.165,3.093,-2.84
CN1CCN(C(=O)c2cc(-c3cccs3)cs2)CC1,1.02,-12.6,7.589,7.106

The last 6 entries again:

| compound | CoaBC | MtTrpRS | TcHisRS | PfKRS1 |
|---|---|---|---|---|
| `CCc1noc(C2CCCCN2C(=O)c2cccnc2)n1` (stereo not given) | -7.621 | 0.6477 | 3.478 | 3.088 |
| `O=C(CCCNC(=O)Nc1ccc(F)cc1F)Nc1cn[nH]c1` | 8.058 | -0.7802 | 0 | 1.548 |
| `CC(C)(C)CC(=O)N1CC[C@H]2CC(=O)N(CCc3c[nH]cn3)CC[C@H]2C1` | 4.636 | -5.387 | 3.261 | 2.194 |
| `Fc1ccc(CN2CCCC2Cn2cncn2)c2ncccc12` (stereo not given) | 5.481 | -1.288 | 10.12 | 5.026 |
| `CCC(C(=O)NCc1csc(-c2ncccn2)n1)n1cccn1` (stereo not given) | 16.04 | 1.165 | 3.093 | -2.84 |
| `CN1CCN(C(=O)c2cc(-c3cccs3)cs2)CC1` | 1.02 | -12.6 | 7.589 | 7.106 |